According to PubChem BioAssay AID328 (DTP/NCI, 2004):
The list does not hold the whole screen: it is rich in T/C values a quarter to a half above the control, in often repeated tests (any T/C) and in doses without a T/C. Further doses and runs are listed elsewhere. T/C gives the treated animals as a percentage of the vehicle group. Some doses have a count of surviving animals in place of a T/C: the source holds a T/C of zero for them, seemingly a mark for toxic or unscored doses. Some doses without a T/C left all or most animals alive at the check, yet need not have been tolerated: survival well below the control is almost never listed, so the zero probably covers shortened survival too. Counts of survivors are from the toxicity check (mostly the fifth day) where no day follows; animals may have died later. Schedules are NCI's codes, taken here to give the interval after Q, in days (D) or hours (H), and the number of doses after X. Some doses were run more than once; the results are listed from low to high. Brackets with × say how often a value occurs here. For survival time, the PubChem record calls one and a half times the control and up active, and a quarter to a half above the control has no call in these data; cut-offs in other NCI protocols can differ. Some T/C values carry the count of animals alive at the toxicity check (mostly the fifth day); where none is given, no animal had died by that day.

System: BDF1 mice, P388 leukemia ip, median survival T/C
Experiment: NCI In Vivo Anticancer Drug Screen. Data for tumor model P388 Leukemia (intraperitoneal) in B6D2F1 (BDF1) mice
Conditions: T/C endpoint: median survival time, higher T/C = longer survival
Summary of the method: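 T/C = treated-group survival ÷ vehicle-control survival; tumour transplanted into mice before dosing.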

[1] = dose: 100.0 mg/kg/injection, schedule: Q01DX009 (ip), vehicle: Klucel (hydroxypropylcellulose) (HPC)
[2] = dose: 200.0 mg/kg/injection, schedule: Q01DX005 (ip), vehicle: Klucel (hydroxypropylcellulose) (HPC)

O=P1(N(CCCl)CCCl)NCCCO1 (stereo unspecified)
survivor count (dose: 100.0 mg/kg/injection, schedule: Q01DX005 (ip), vehicle: Klucel (hydroxypropylcellulose) (HPC)): 3 of 3 and 6 of 6
T/C [1]: 87, 88, 89, 90, 96, 97, 100, 105, 107, 110, 112, 112 [2 of 2 alive], 117, 119, 136, 139, 174, 178, 262 % of control
survivor count [1]: 3 of 3 and 6 of 6
T/C (dose: 100.0 mg/kg/injection, schedule: Q04DX002 (ip), vehicle: Klucel (hydroxypropylcellulose) (HPC), evaluated on day 30): 131, 170, 197, 205, 210, 220, 231, 237 (2×), 238, 247, 252, 256 (2×), 258 (2×), 262, 265, 269, 270, 272, 275 (2×), 279, 280, 283, 285, 288, 294, 306 (2×), 309, 322 % of control
T/C (dose: 100.0 mg/kg/injection, schedule: Q04DX002 (ip), vehicle: Klucel (hydroxypropylcellulose) (HPC), evaluated on day 35): 301 % of control
T/C (dose: 100.0 mg/kg/injection, schedule: Q04DX003 (ip), vehicle: Klucel (hydroxypropylcellulose) (HPC), evaluated on day 30): 86, 91 [5 of 6 alive], 106 (2×), 107, 108, 121, 122, 132, 134, 135, 136, 140, 151, 171 [2 of 3 alive], 192, 224, 227, 229 (2×), 243, 247, 253, 257, 260, 263, 266, 269, 270, 271, 272 (2×), 283 % of control
T/C (dose: 100.0 mg/kg/injection, schedule: Q04DX003 (ip), vehicle: Klucel (hydroxypropylcellulose) (HPC), evaluated on day 35): 218 and 312 % of control
survivor count (dose: 100.0 mg/kg/injection, schedule: Q04DX003 (ip), vehicle: Klucel (hydroxypropylcellulose) (HPC)): 3 of 3
T/C (dose: 100.0 mg/kg/injection, schedule: Q04DX003 (ip), vehicle: saline, evaluated on day 5): 116, 183, 206, 233, 266, 343, 351, 558 % of control
T/C (dose: 100.0 mg/kg/injection, schedule: Q04DX003 (ip), vehicle: saline, evaluated on day 9): 413 % of control
T/C (dose: 100.0 mg/kg/injection, schedule: Q04DX003 (ip), vehicle: saline, evaluated on day 11): 95 % of control
T/C (dose: 100.0 mg/kg/injection, schedule: Q04DX003 (ip), vehicle: saline, evaluated on day 30): 259 and 266 % of control
T/C (dose: 100.0 mg/kg/injection, schedule: Q04DX003 (ip), vehicle: saline, evaluated on day 60): 116, 183, 206, 233, 266, 343, 351 % of control
T/C (dose: 133.0 mg/kg/injection, schedule: Q01DX001 (ip), vehicle: saline, evaluated on day 5): 112, 117, 203, 212, 233, 250, 305, 306 % of control
T/C (dose: 133.0 mg/kg/injection, schedule: Q01DX001 (ip), vehicle: saline, evaluated on day 60): 112, 117, 203, 212, 233, 250, 305 (2×), 306, 316, 338, 352, 486, 530 % of control
T/C (dose: 150.0 mg/kg/injection, schedule: Q01DX001 (ip), vehicle: saline, evaluated on day 5): 310 % of control
T/C (dose: 150.0 mg/kg/injection, schedule: Q01DX001 (ip), vehicle: saline, evaluated on day 34): 263 % of control
T/C (dose: 150.0 mg/kg/injection, schedule: Q01DX001 (ip), vehicle: saline, evaluated on day 46): 356 % of control
T/C (dose: 150.0 mg/kg/injection, schedule: Q01DX001 (ip), vehicle: saline, evaluated on day 60): 295, 359, 433 % of control
T/C (dose: 160.0 mg/kg/injection, schedule: Q01DX005 (ip), vehicle: saline, evaluated on day 30): 91 % of control
T/C (dose: 160.0 mg/kg/injection, schedule: Q01DX005 (ip), vehicle: saline, evaluated on day 35): 156 and 343 % of control
survivor count (dose: 160.0 mg/kg/injection, schedule: Q01DX005 (ip), vehicle: saline): 5 of 6 (2×) and 6 of 6
T/C (dose: 160.0 mg/kg/injection, schedule: Q01DX009 (ip), vehicle: saline, evaluated on day 35): 91 [5 of 6 alive] and 100 % of control
T/C (dose: 160.0 mg/kg/injection, schedule: Q01DX009 (ip), vehicle: saline, evaluated on day 40): 89 % of control
survivor count (dose: 160.0 mg/kg/injection, schedule: Q01DX009 (ip), vehicle: saline): 5 of 6 and 6 of 6
T/C (dose: 200.0 mg/kg/injection, schedule: Q01DX001 (ip), vehicle: Klucel (hydroxypropylcellulose) (HPC), evaluated on day 30): 101, 194, 205, 216, 221, 228, 234, 239, 245, 247, 250, 252 (2×), 260, 265, 266, 267, 267 [2 of 3 alive], 270, 271, 272, 274, 275 (2×), 276, 279, 285 % of control (2×)
T/C (dose: 200.0 mg/kg/injection, schedule: Q01DX001 (ip), vehicle: Klucel (hydroxypropylcellulose) (HPC), evaluated on day 35): 267 and 279 % of control
survivor count (dose: 200.0 mg/kg/injection, schedule: Q01DX001 (ip), vehicle: Klucel (hydroxypropylcellulose) (HPC)): 3 of 3
T/C (dose: 200.0 mg/kg/injection, schedule: Q01DX001 (ip), vehicle: saline, evaluated on day 5): 117, 118, 260, 262, 274, 277, 383 (2×), 389, 553, 559, 586, 672 % of control
T/C (dose: 200.0 mg/kg/injection, schedule: Q01DX001 (ip), vehicle: saline, evaluated on day 30): 117, 140, 262 [5 of 6 alive], 283 % of control
T/C (dose: 200.0 mg/kg/injection, schedule: Q01DX001 (ip), vehicle: saline, evaluated on day 35): 323 [5 of 6 alive] and 343 % of control
T/C (dose: 200.0 mg/kg/injection, schedule: Q01DX001 (ip), vehicle: saline, evaluated on day 40): 396 % of control
T/C (dose: 200.0 mg/kg/injection, schedule: Q01DX001 (ip), vehicle: saline, evaluated on day 60): 117, 118, 120, 260, 262, 275, 333, 383, 383 [9 of 10 alive], 468, 471, 483, 484, 529, 530, 553, 586 % of control
survivor count (dose: 200.0 mg/kg/injection, schedule: Q01DX001 (ip), vehicle: saline): 10 of 10
T/C [2]: 98 and 106 % of control
survivor count [2]: 3 of 6, 2 of 3, 4 of 6, 5 of 6, 3 of 3, 6 of 6 (2×)
